Experimental data from PubChem BioAssay AID2551 (National Center for Advancing Translational Sciences (NCATS), 2010).
In all, about 310,000 compounds went through this assay and about 17,000 (5.5%) were called active. Inconclusive means that the source gave no clear call. Such entries were picked first, then a sample of the others. Calls come from the whole dose curve; as a rule, active = well fitted inhibition curve with a large enough effect; inconclusive = small, poorly fitted or top-dose-only effect, or effect the other way; inactive = no such curve, though single readings can be large or run the other way. Potencies beside an inconclusive call are fits to weak or partial responses and may not hold up.

By UniProt entry, the sequences of proteins in these tests, tags left out. Where a name states a change or a piece, a line headed by the entry shows the natural chain unless it says otherwise.
UniProt P51450: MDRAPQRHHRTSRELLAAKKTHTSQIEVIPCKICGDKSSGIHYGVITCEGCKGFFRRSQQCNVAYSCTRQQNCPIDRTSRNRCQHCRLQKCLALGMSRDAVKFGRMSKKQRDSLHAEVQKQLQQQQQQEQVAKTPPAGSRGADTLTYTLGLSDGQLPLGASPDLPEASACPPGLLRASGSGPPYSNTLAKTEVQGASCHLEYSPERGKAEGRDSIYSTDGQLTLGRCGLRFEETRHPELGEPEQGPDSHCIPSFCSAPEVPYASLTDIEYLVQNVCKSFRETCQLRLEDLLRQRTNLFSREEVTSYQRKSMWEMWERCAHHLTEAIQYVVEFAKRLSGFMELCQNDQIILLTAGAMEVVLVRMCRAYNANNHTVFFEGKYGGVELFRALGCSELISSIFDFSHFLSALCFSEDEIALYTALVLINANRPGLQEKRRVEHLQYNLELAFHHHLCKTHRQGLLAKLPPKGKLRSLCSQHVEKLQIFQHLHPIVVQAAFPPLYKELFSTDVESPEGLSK

target: Nuclear receptor ROR-gamma (Mus musculus) (UniProt P51450); assay: qHTS for inhibitors of ROR gamma transcriptional activity; settings: Drosophila S2 Gal4-RORgamma UAS-luciferase reporter, 20 h; activity change, negative = inhibition: at 53.6 µM (top of the series); note: nearly all actives have a fitted effect of over 60% in size
Outline: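 Luciferase reporter read in Schneider cells carrying Gal4-RORγ (mouse) and UAS-Photinus luciferase; cells given compound 1 h before 700 uM copper sulfate induction, then incubated 20 h at ambient temperature.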
% is set by controls: 0 for no effect and ±100 for the full control effect; potency is the fitted concentration of half-maximal effect.

Compound | Potency | activity change, negative = inhibition
CCOc1ccc(N(CC(=O)Nc2cccc(OC)c2)S(=O)(=O)c2c(C)noc2C)cc1 | inconclusive: 10 µM [activator, partial curve, poor fit] | –
Cc1ccnc(N(C(=O)Nc2ccccc2)C2=NCC(C)(C)S2)c1 | active: 11.2 µM | –
COc1ccc(S(=O)(=O)Nc2ccc(O)c(Sc3nc4ccccc4s3)c2)cc1 | – | inactive: 1.49% [at 10 µM]
Cc1csc2nc(CNS(=O)(=O)c3ccc4c(c3)OCCO4)cn12 | – | inactive: 9.8%
Cc1cc(C(=O)COC(=O)c2ccc(O)cc2)c(C)n1Cc1ccco1 | inconclusive: 11.2 µM [inhibitor, partial curve] | –
Cn1c(CNc2ccc(Cl)cc2)nc2ccccc21 | inconclusive: 31.6 µM [inhibitor, single point] | –
Cc1ccc(C(C)C)c(OCC(=O)Nc2ccc3c(c2)nc(CCN2CCCCC2)n3C)c1 | inconclusive: 17.8 µM [inhibitor, single point] | –
CN(C(=S)NC(=O)c1ccccc1)C1CCCCC1 | active: 1.12 µM | –
CC[C@H](C)[C@H](NC(=O)[C@H](N)Cc1ccc(O)cc1)C(=O)N[C@@H](CC(N)=O)C(=O)N[C@@H](CC(C)C)C(=O)N[C@H](C(=O)N[C@@H](C(=O)N[C@@H](CCCN=C(N)N)C(=O)N[C@@H](CCC(N)=O)C(=O)N[C@@H](CCCN=C(N)N)C(=O)N[C@H](Cc1ccc(O)cc1)C(N)=O)[C@@H](C)O)[C@@H](C)CC | – | inactive: -10.1%
O=C(COc1ncnc2scc(-c3ccccc3)c12)NC1CCCc2ccccc21 (centres undefined) | inconclusive: 12.6 µM [activator, partial curve] | –
Nc1ccc(-c2nnn(Cc3ccccc3F)n2)cc1 | inconclusive: 17.8 µM [activator, partial curve, poor fit] | –
O=C(/C=C/c1ccc(S(=O)(=O)NCc2ccco2)cc1)NCc1cccc(Cl)c1 | inconclusive: 15.8 µM [activator, partial curve] | –
CC1(C)CC(=O)c2cnn(-c3nc4ccccc4[nH]3)c2C1 | active: 8.91 µM | –
Cc1ccc(C(=O)Nc2ncc(Cc3ccccc3)s2)o1 | active: 11.2 µM | –
OCc1ccc(-c2ccc(-c3ccc(CO)s3)o2)s1 | active: 0.631 µM | –
CCSc1nc2c(c(=O)n1CC)SC(C)C2 (centres undefined) | inconclusive: 6.31 µM [inhibitor, single point] | –
CCOc1ccccc1NC(=O)CCCN1C(=S)NC(C)(C)CC1C (centres undefined) | active: 14.1 µM | –
O=c1cc(-c2cccc(O)c2O)oc2ccccc12 | – | inactive: -36.3%
COc1ccccc1/C=C/C=N/n1c(-c2ccc(F)cc2)n[nH]c1=S | active: 2 µM | –
O=C(O)c1cccc(NC(=O)c2cn(-c3ccccc3)nc2-c2cc3ccccc3o2)c1 | inconclusive: 7.08 µM [activator, partial curve] | –
CC[C@H](C)[C@@H](NC(=O)O[C@@H]1C(=O)c2cc(Br)ccc2O[C@H]1c1ccc2c(c1)OCO2)C(=O)OC | inconclusive: 35.5 µM [activator, single point] | –
C/C(=N\NC(=O)c1cc(-c2ccccc2C)nc2ccccc12)c1cccnc1 | inconclusive: 35.5 µM [inhibitor, single point] | –

Compound | Potency | activity change, negative = inhibition
O=C(Nc1nc(-c2cccs2)c(C(=O)C(F)(F)F)s1)c1ccccc1 | inconclusive: 10 µM [activator, partial curve] | –
CN(C(=O)c1ccccn1)c1nnc(-c2ccccn2)s1 | active: 10 µM | –
c1ccc2c(c1)oc1c(NCC3CCCO3)ncnc12 (centres undefined) | inconclusive: 3.55 µM [activator, partial curve] | –
COCCNC(=O)Cn1cc(/C=C(\C#N)C(=O)NC2CCCC2)c2ccccc21 | – | inactive: 9.61%
CC(=O)c1cccc(NC(=O)c2ccc3c(c2)CCN3S(=O)(=O)c2ccccc2)c1 | inconclusive: 35.5 µM [inhibitor, single point] | –
Cc1ccc(-c2nnc(SCc3ccc(C#N)cc3)n2Cc2ccco2)cc1 | inconclusive: 25.1 µM [inhibitor, single point] | –
CCCCC1=CC2=C(c3ccco3)C(=O)C(C)(OC(=O)c3ccc(OC)cc3)C(=O)C2=CN1Cc1ccc2c(c1)OCO2 (centres undefined) | – | inactive: 12%
CCOc1ccc(NS(=O)(=O)c2ccc(C(=O)N(CC)CC(=O)NCc3cccs3)cc2)cc1 | inconclusive: 35.5 µM [activator, single point] | –
Cc1cc(C(=O)N/N=C/c2cc(Cl)cc([N+](=O)[O-])c2O)c2ccccc2n1 | active: 1.58 µM | –
C=CCNc1ncnc2c1cnn2-c1ccc(OC)cc1 | inconclusive: 11.2 µM [inhibitor, single point] | –
CC(NC(=O)c1ccc(C(C)(C)C)cc1)C(c1cccs1)N1CCOCC1 (centres undefined) | inconclusive: 7.94 µM [activator, partial curve] | –
CC(C(=O)NCC1CCCCC1)N1CCN(S(=O)(=O)/C=C/c2ccccc2)CC1 (centres undefined) | inconclusive: 11.2 µM [activator, partial curve] | –
CN1CCN(c2ccc(NC(=O)N3CCc4ccccc43)cc2)CC1 | active: 10 µM | –
NC(=S)N/N=C/c1c(O)ccc2ccccc12 | active: 1.12 µM | –
CCCc1cc(NCCCO)n2c(nc3ccccc32)c1C#N | – | inactive: -23.5%
COCCNC(=S)Nc1cc(S(=O)(=O)N2CCOCC2)ccc1N1CCCCC1 | active: 0.891 µM | –
O=C(C1CC1)N(CCc1ccccc1)Cc1nc2ccccc2c(=O)[nH]1 | inconclusive: 35.5 µM [inhibitor, single point] | –
COc1nc(NC2CCCCC2)nc(N2CCCCCC2)n1 | inconclusive: 22.4 µM [inhibitor, single point] | –
COc1ccc(NC(=O)C2CCN(S(=O)(=O)c3ccc4c(c3)NC(=O)C(C)S4)CC2)cc1 (centres undefined) | inconclusive: 15.8 µM [activator, single point] | –
CC1(CC(=O)Nc2ccccc2)NC(=S)N(c2ccccc2)N1 (centres undefined) | active: 7.94 µM | –
CCn1ncc(C2=NOC(C(=O)Nc3cccnc3)C2)c1C (centres undefined) | inconclusive: 35.5 µM [activator, single point] | –
c1ccc(-c2nnn(C34CC5CC(CC(C5)C3)C4)n2)cc1 | inconclusive: 10 µM [activator, partial curve] | –

An excerpt of these results, field by field:
CN1CCN(c2ccc(NC(=O)N3CCc4ccccc43)cc2)CC1
  Potency: active: 10 µM
NC(=S)N/N=C/c1c(O)ccc2ccccc12
  Potency: active: 1.12 µM
CCCc1cc(NCCCO)n2c(nc3ccccc32)c1C#N
  activity change, negative = inhibition: inactive: -23.5%
